# From paper PMC7819943, “Rice protein-binding microarrays: a tool to detect cis-acting elements near promoter regions in rice”
# Some of the results follow.
# Biological target: T1, OsSMF1 (Oryza sativa, UniProt Q6ZLB0 1-436)
# T1 sequence: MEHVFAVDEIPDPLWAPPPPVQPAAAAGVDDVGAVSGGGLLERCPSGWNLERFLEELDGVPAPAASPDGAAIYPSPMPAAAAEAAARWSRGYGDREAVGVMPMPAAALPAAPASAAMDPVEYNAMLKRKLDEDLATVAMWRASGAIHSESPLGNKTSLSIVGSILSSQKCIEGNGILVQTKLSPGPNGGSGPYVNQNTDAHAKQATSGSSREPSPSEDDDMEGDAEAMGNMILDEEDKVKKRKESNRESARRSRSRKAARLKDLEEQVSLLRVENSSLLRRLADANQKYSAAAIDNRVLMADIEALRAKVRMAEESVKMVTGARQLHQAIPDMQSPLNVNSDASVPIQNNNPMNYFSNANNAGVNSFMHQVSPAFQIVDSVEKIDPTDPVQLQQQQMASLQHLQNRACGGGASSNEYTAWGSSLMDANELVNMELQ
# Assay: protein-binding microarray (RPBM); PBS, 2% BSA, 51.3 ng/ul salmon testes DNA, 50 uM zinc acetate, 200 nM TF, 25 C, 1 h; high values mean tight binding
# Settings: protein: recombinant; tags: N-terminal polyhistidine and DsRed monomer fusion (pET32a); chain copies: 2; label: CyDye5-dUTP incorporated in the synthesized complementary strand; 3' TTTTT single-stranded linker to array surface; dsDNA, one strand shown
# In short: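 In PBS with 2% BSA, salmon testes DNA and 50 µM zinc acetate, 200 nM protein was incubated on a custom Agilent array at 25 °C for 1 h and then washed off. The array had been made double-stranded by primer extension with Cy5-dUTP and blocked with 2% BSA. The proteins were transcription factors fused N-terminally to polyhistidine and DsRed, expressed in E. coli BL21-CodonPlus and purified on Ni–NTA. The binding signal is per-feature fluorescence intensity (arbitrary units) from an Axon 4000B scanner.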
row,Sequence,binding signal
1,CGTCCACTTCCGCCGCCGTCGCCGCGTCCACCGCAGCCGCCGGAGTCACCTAGTGCAG,3680 fluorescence intensity (a.u.)
2,GGAGGGCTAAGAATATATACTAGCATACAGTGCAGACGCTCGGAGTCACCTAGTGCAG,3270 fluorescence intensity (a.u.)
3,GGCGGGCCTCGCCGGATCGCCGTCCACGTCCCGGCGACCGCGGAGTCACCTAGTGCAG,4880 fluorescence intensity (a.u.)
4,GCTGCTGCACCACGTCCTTCCTCTTCCTCGCCCCACCACCCGGAGTCACCTAGTGCAG,6380 fluorescence intensity (a.u.)
5,GAGAGTATTTGGAACACGTCATCACTTCGTCCCTTATTATCGGAGTCACCTAGTGCAG,20200 fluorescence intensity (a.u.)
6,GAGTCGCGAGCGAGTTAGGAAGGGGTACGTCGCGGTTGGACGGAGTCACCTAGTGCAG,3140 fluorescence intensity (a.u.)
7,AGCAGCCAAGAAGAAATTTCTAGTCAGCAGCAAAGCTCTCCGGAGTCACCTAGTGCAG,4450 fluorescence intensity (a.u.)
8,CCCGCGGATCGATCGATCGCCGCCGCGCGCCTGGACGAGCCGGAGTCACCTAGTGCAG,3300 fluorescence intensity (a.u.)
9,ACACGTCGGATTTGGGCTTGCGTGGCGCTAGGGTCCGCGCCGGAGTCACCTAGTGCAG,9740 fluorescence intensity (a.u.)
10,GTAGAATGACACCGTACGAGTAGCTGCGAAATTACGCATCCGGAGTCACCTAGTGCAG,3810 fluorescence intensity (a.u.)
11,TGCCGAGGCAGAGCAGCGGAAGAATGTGGGCCAAATTAGGCGGAGTCACCTAGTGCAG,21700 fluorescence intensity (a.u.)
12,TGGGCCAGGTGACTCGCCACGTGGCCTCCTCGTAGGGCGGCGGAGTCACCTAGTGCAG,12300 fluorescence intensity (a.u.)
13,GATAGGGATGACGCGGAGGTGGCCAGCCGTTCCACGTACTCGGAGTCACCTAGTGCAG,7600 fluorescence intensity (a.u.)
14,CTCCCTCTGTCACCGCCCGTTCCTCTCCCGTTTGCCACGTCGGAGTCACCTAGTGCAG,10800 fluorescence intensity (a.u.)
15,CTTCTTCGTTAGGGCGGCTACGTGTTTTAAAGGTTTGGCCCGGAGTCACCTAGTGCAG,4330 fluorescence intensity (a.u.)
16,AACCTGAGGGATTCAATAGCTCAAGTGAAGTCCGACGTTGCGGAGTCACCTAGTGCAG,20600 fluorescence intensity (a.u.)
17,GGCGGCCACTGCATCGTTGGCGCCGTCCATCTCCATTAATCGGAGTCACCTAGTGCAG,3530 fluorescence intensity (a.u.)
18,GAAATGGAACACCTGTCCACGTGAGCCGCCAATCCGCCGGCGGAGTCACCTAGTGCAG,3370 fluorescence intensity (a.u.)
19,TATGCCCTGGTGGCATGCGATGTGTCAATTTATGGTCTTGCGGAGTCACCTAGTGCAG,4000 fluorescence intensity (a.u.)
20,TGTCTCAGTCAGTGGATCACTGTGTCAGCACAGGCAGAGGCGGAGTCACCTAGTGCAG,7720 fluorescence intensity (a.u.)
21,CTGTTGCACGTGCTTTGTTCACCGAAGGTTCCAGCTACTCCGGAGTCACCTAGTGCAG,26900 fluorescence intensity (a.u.)

# A different layout for part of the listing above:
row	Sequence	binding signal
9	ACACGTCGGATTTGGGCTTGCGTGGCGCTAGGGTCCGCGCCGGAGTCACCTAGTGCAG	9740 fluorescence intensity (a.u.)
10	GTAGAATGACACCGTACGAGTAGCTGCGAAATTACGCATCCGGAGTCACCTAGTGCAG	3810 fluorescence intensity (a.u.)
11	TGCCGAGGCAGAGCAGCGGAAGAATGTGGGCCAAATTAGGCGGAGTCACCTAGTGCAG	21700 fluorescence intensity (a.u.)
12	TGGGCCAGGTGACTCGCCACGTGGCCTCCTCGTAGGGCGGCGGAGTCACCTAGTGCAG	12300 fluorescence intensity (a.u.)
13	GATAGGGATGACGCGGAGGTGGCCAGCCGTTCCACGTACTCGGAGTCACCTAGTGCAG	7600 fluorescence intensity (a.u.)
14	CTCCCTCTGTCACCGCCCGTTCCTCTCCCGTTTGCCACGTCGGAGTCACCTAGTGCAG	10800 fluorescence intensity (a.u.)
15	CTTCTTCGTTAGGGCGGCTACGTGTTTTAAAGGTTTGGCCCGGAGTCACCTAGTGCAG	4330 fluorescence intensity (a.u.)
16	AACCTGAGGGATTCAATAGCTCAAGTGAAGTCCGACGTTGCGGAGTCACCTAGTGCAG	20600 fluorescence intensity (a.u.)
17	GGCGGCCACTGCATCGTTGGCGCCGTCCATCTCCATTAATCGGAGTCACCTAGTGCAG	3530 fluorescence intensity (a.u.)
18	GAAATGGAACACCTGTCCACGTGAGCCGCCAATCCGCCGGCGGAGTCACCTAGTGCAG	3370 fluorescence intensity (a.u.)
19	TATGCCCTGGTGGCATGCGATGTGTCAATTTATGGTCTTGCGGAGTCACCTAGTGCAG	4000 fluorescence intensity (a.u.)

# The list continues.

row,Sequence,binding signal
1,TTCCATGTGATGTCATCAACACGTACTCACCTGGCTACCTCGGAGTCACCTAGTGCAG,15600 fluorescence intensity (a.u.)
2,TACGGCAGGATGCCACGTCAACAACCAGCCTCTCCCTTCCCGGAGTCACCTAGTGCAG,30800 fluorescence intensity (a.u.)
3,TTTCTTTCAATATGGCATTAGTTGTCTTGCTGAGTTGGTTCGGAGTCACCTAGTGCAG,4290 fluorescence intensity (a.u.)
4,TTAGAAGATAAATACACGTACGCGCGTGAGGCTAGCTATCCGGAGTCACCTAGTGCAG,6050 fluorescence intensity (a.u.)
5,TCACTTCTATTCGTTCCTAGCTAGTAGCAAATTAAGCTGCCGGAGTCACCTAGTGCAG,8130 fluorescence intensity (a.u.)
6,GCATTCTGACGCTATTGCATGGACAAACCATTATCCAAAGCGGAGTCACCTAGTGCAG,3730 fluorescence intensity (a.u.)
7,ATCGCGCCCGAACCTACGCAGGGTCACTTACAGCGGGGCCCGGAGTCACCTAGTGCAG,6000 fluorescence intensity (a.u.)
8,TCCCGCCACAAGCAACCAAGAAATCAAGAAACCGTTTCAGCGGAGTCACCTAGTGCAG,19600 fluorescence intensity (a.u.)
9,TTTAGTATGTTTGCATGGCACGTGGAAGATCATTACTTATCGGAGTCACCTAGTGCAG,4050 fluorescence intensity (a.u.)
10,TAACAACGTGATAACAGCAATTACGTGGTTGTTAGCAACCCGGAGTCACCTAGTGCAG,6370 fluorescence intensity (a.u.)
11,GGGCTATATATTTATAGCCAGCTGTAGCACGGACTCCAAGCGGAGTCACCTAGTGCAG,3310 fluorescence intensity (a.u.)
12,GGCCGCCACGCCGGGACGGTGCTGGCGGGCGGGCGCGCGCCGGAGTCACCTAGTGCAG,3320 fluorescence intensity (a.u.)
13,TGGCCTTTCTTCCCGCCACATGTCACCCACCCCTAGCCCTCGGAGTCACCTAGTGCAG,4670 fluorescence intensity (a.u.)
14,ATTGAATATTGAATTCTCTCTAGTTCCGCCACGTGTCCGCCGGAGTCACCTAGTGCAG,22800 fluorescence intensity (a.u.)
15,CTAATGCCACGTAAGTGCCACGTGGCATGAAAACCGGGTTCGGAGTCACCTAGTGCAG,46300 fluorescence intensity (a.u.)
16,ATGGCAACACAATCGTCGTCGTCGCCGCCGCCGTCAGCATCGGAGTCACCTAGTGCAG,4900 fluorescence intensity (a.u.)
17,AATTTTCAATGATACGTTTATTGTATGACTATTGACTAGTCGGAGTCACCTAGTGCAG,3300 fluorescence intensity (a.u.)
18,GAGTCCGGGGCAGCCAGATCCAGCGCCACCTCACCCATGGCGGAGTCACCTAGTGCAG,8200 fluorescence intensity (a.u.)
19,ACTGCTGCCTCACGCAGTCACGACGCTGAAGTGGTAGTAGCGGAGTCACCTAGTGCAG,3650 fluorescence intensity (a.u.)
20,TTTCATTTGCAATGCGCTTTTGTAACTAAAGGAATTGTTCCGGAGTCACCTAGTGCAG,27200 fluorescence intensity (a.u.)
21,AAACCTCCACCACCACCGCCACCACCGCCGCGCAAAACCCCGGAGTCACCTAGTGCAG,3740 fluorescence intensity (a.u.)
